# Data as given in PubChem BioAssay AID1492 (National Center for Advancing Translational Sciences (NCATS), 2009).
# The inconclusive results got no clear call from the source. A potency beside an inconclusive call is a rough fit, not a confirmed value.
# Target: Muscarinic acetylcholine receptor M1 (Rattus norvegicus) (UniProt P08482)
# Assay: Counterscreen Concentration-Response Assay for Antagonists of the Neuropeptide S Receptor: Muscarinic Receptor Calcium Signal Transduction.
# Conditions: CHO-M1 cells, carbachol-induced calcium fluorescence, FDSS; active = well fitted inhibition curve with a large enough effect; inconclusive = small, poorly fitted or top-dose-only effect; inactive = flat fitted curve, though single readings scatter
# Source text: NIH Chemical Genomics Center [NCGC] NIH Molecular Libraries Probe Production centers Network [MLPCN] MLPCN Grant: X01-DA026210-01 Assay Submitter (PI): Heilig, Markus Alexander NCGC Assay Overview: Neuropeptide S receptor (NPSR), previously known as GPR154, is a recently de-orphanized G protein coupled receptor. Its endogenous ligand is the 20 amino acids peptide Neuropeptide S (NPS). […] NPS and its receptor are found in various tissues. Specifically they are highly expressed in brain areas that have been implicated in modulation of arousal, stress and anxiety. Central administration of NPS in mice produces an unusual profile of activity by inducing wakefulness and arousal, while at the same time suppressing anxiety. Therefore, NPSR may represent a novel drug target for the treatment of sleep and anxiety disorders. To identify NPSR antagonists, we developed a cell-based assay with transfected NPS receptor. NPS can stimulate the production of cAMP as well as release intracellular calcium in Chinese hamster ovary cells stably expressing NPS receptor. This change in intracellular calcium can be detected using a calcium indicator dye on a calcium imaging plate reader system (FDSS). To validate the specific action of compounds on the NPS receptor, a counterscreen was developed that tests compounds' antagonism of M1 muscarinic receptor stimulation by carbachol. The protein, gene and taxonomy linked to this assay refer to Rattus norvegicus, but Chinese Hamster ovary cells were actually used.
# NCGC Assay Protocol Summary: A Chinese hamster ovary (CHO) cell line stably expressing muscarinic acetylcholine M1 receptor (CHO-M1) was obtained from ATCC and maintained in F-12 Kaighn's media (Invitrogen, Carlsbad, CA, 21127) supplemented with 10 % FBS, 100 units/ml penicillin, 100 ug/ml streptomycin and 250 ug/ml geneticin at 37C, 5% CO2 in a humidified atmosphere. Before the assay, aliquots of cells were frozen and stored at -135C. The assay was performed on a FDSS-7000 kinetic plate reader in 1536-well format. The maximums of kinetic fluorescence responses were converted into text files using the instrument's software data export utility. […] AC50 values were determined from concentration-response data modeled with the standard Hill equation. CHO-M1 1536-well FDSS assay protocol: (1) Frozen CHO-M1 cells were thaw, washed once with fresh media and resuspended in F-12 Kaighn's media supplemented with 10 % FBS, 100 units/ml penicillin and 100 ug/ml streptomycin. Cells were plated at 3 ul/well (1200 cells) to black, clear-bottom, tissue-culture treated 1536-well plates, and then cultured at 37C, 5 % CO2 for 16 to 30 hours. (2) Add 3 ul of calcium dye (from High Performance PBX Calcium Assay Kit, BD Biosciences). The calcium dye was prepared according to the manufactory's instruction. […]
row,Compound,Potency
1,Cc1cc(C=C2C(=O)NC(=S)NC2=O)c(C)n1-c1ccc2c(c1)OCO2,"inconclusive: 12.6 µM [inhibitor, partial curve, poor fit]"
2,C=CCN1C(=O)/C(=C/c2cccs2)C(=O)NC1=S,"inconclusive: 15.8 µM [inhibitor, partial curve, poor fit]"
3,CCCCn1c(O)c(C=NC2CC3CCC2(C)C3(C)C)c(=O)[nH]c1=O (centres undefined),"inconclusive: 14.1 µM [inhibitor, partial curve, poor fit]"
4,Cc1cccc(N2C(=O)NC(=O)/C(=C\c3cnn(-c4ccccc4)c3)C2=O)c1,"inconclusive: 15.8 µM [inhibitor, partial curve, poor fit]"
